PubChem BioAssay AID1259254, NCATS, 2017

- Purpose: 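Finding genes that stop cells copying their DNA twice in one cycle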 (primary screen)
- Cells: human HCT116 colorectal cancer cells
- Knock-down reagent: single siRNA against human genes
- Timing: 3 days
- Detection: 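Nuclei stained with Hoechst and imaged; cell-cycle phase assigned by DNA content; G2 share scaled per plate, non-targeting siRNA 0%, GMNN siRNA 100%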
- Scale: G2 robust z-score: higher = more G2 cells, more excess DNA replication
- Call rule: 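An siRNA counts as active if its G2 robust z-score lies at least 5 MADs above the screen median; here such calls match roughly 38% of GMNN control or more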
The deposit covers about 59,000 reagents; this is a part drawn at random. About 1,550 of all reagents (2.6%) count as active. 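G2 share is only a proxy for re-replication; each gene was hit by three separate siRNAs, and active genes were retested.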 A number with no mark means an inactive call. Reagents against one gene are numbered here. Not all columns of the deposit are shown. Reagent sequences are not shown. The record does not give: the amount of reagent.

G2 robust z-score, by gene knocked down and reagent
ASAP2 (ArfGAP with SH3 domain, ankyrin repeat and PH domain 2): #1 -0.124; #2 2.56; #3 -1.14
PPIE (peptidylprolyl isomerase E): #1 0.169; #2 -0.29; #3 0.0108
SORBS2 (sorbin and SH3 domain containing 2): #1 -0.921; #2 0.445; #3 2.62
FASLG (Fas ligand): #1 0.976; #2 -0.306; #3 -0.235
NEUROD4 (neuronal differentiation 4): #1 4.44; #2 3.18; #3 3.65
DAAM1 (dishevelled associated activator of morphogenesis 1): #1 -0.871; #2 -0.42; #3 2.84
CDC42P6 (CDC42 pseudogene 6): #1 2.3; #2 0.807; #3 0.61
GTF2H2 (general transcription factor IIH subunit 2): #1 0.297; #2 3.4; #3 0.897
UPK1B (uroplakin 1B): #1 0.415; #2 1.28; #3 2.8
SERINC2 (serine incorporator 2): #1 -0.684; #2 0.842; #3 4.89
PPTC7 (protein phosphatase targeting COQ7): #1 -0.119; #2 -1.39; #3 1.72
FASN (fatty acid synthase): #1 -0.263; #2 0.411; #3 -0.939
PTRHD1 (peptidyl-tRNA hydrolase domain containing 1): #1 0.594; #2 3.73; #3 -1.2
LOC646670 (retired record): #1 0.7; #2 1.27; #3 -0.397
USP6 (ubiquitin specific peptidase 6): #1 0.122; #2 -0.623; #3 0.109
NKAIN4 (sodium/potassium transporting ATPase interacting 4): #1 0.0465; #2 0.374; #3 -0.841
MIEF2 (mitochondrial elongation factor 2): #1 -0.257; #2 0.82; #3 -0.733
AHCTF1 (AT-hook containing transcription factor 1): #1 0.253; #2 -0.35; #3 0.576
OBI1 (ORC ubiquitin ligase 1): #1 0.299; #2 -0.87; #3 -0.136
MEGF10 (multiple EGF like domains 10): #1 0.222; #2 3.5; #3 -0.0233
GNG4 (G protein subunit gamma 4): #1 -0.0568; #2 1.98; #3 -0.474
GFM2 (GTP dependent ribosome recycling factor mitochondrial GFM2): #1 1.06; #2 -0.662; #3 -0.333
AMD1 (adenosylmethionine decarboxylase 1): #1 1.23; #2 4.16; #3 1.12
SHC4 (SHC adaptor protein 4): #1 -0.212; #2 0.909; #3 -1.39
CCN5 (cellular communication network factor 5): #1 -0.476; #2 -0.77; #3 -0.5
ARG1 (arginase 1): #1 2.98; #2 2.28; #3 0.478
SEMA3E (semaphorin 3E): #1 -0.871; #2 -0.472; #3 -0.25
TAPBPL (TAP binding protein like): #1 1.73; #2 -0.762; #3 -0.763
SLC10A1: #1 -0.0197; #2 -1.38; #3 -0.298

Records listed so far whose target name begins with M or m:
G2 robust z-score, by gene knocked down and reagent
MIEF2 (mitochondrial elongation factor 2): #1 -0.257; #2 0.82; #3 -0.733
MEGF10 (multiple EGF like domains 10): #1 0.222; #2 3.5; #3 -0.0233
